US7125958B1, “Malaria polypeptides” (priority 1997, dated 2006)
Some of these results come from one statement about several compounds together.

System: uninfected RBC rosette binding capacity
Type: cell-based, Plasmodium falciparum
Conditions: compared to non-treated RBC

Row | Substance | decrease of rosette binding capacity of treated uninfected RBC
1 | chymotrypsin | 2–5 fold
2 | trypsin | 2–5 fold
